Measurements reported in article PMC6700475.
No constants are given. Whether binding was seen depends on the method and setting. Binding seen in cells or lysates may run through a third protein. These calls come from enrichment with a bait or labelling near it, and not all partners need be listed. For part of these data: No binding means not detected with the bait.

Amino acid sequences for entries named in this document (tags omitted).
UniProt Q15554: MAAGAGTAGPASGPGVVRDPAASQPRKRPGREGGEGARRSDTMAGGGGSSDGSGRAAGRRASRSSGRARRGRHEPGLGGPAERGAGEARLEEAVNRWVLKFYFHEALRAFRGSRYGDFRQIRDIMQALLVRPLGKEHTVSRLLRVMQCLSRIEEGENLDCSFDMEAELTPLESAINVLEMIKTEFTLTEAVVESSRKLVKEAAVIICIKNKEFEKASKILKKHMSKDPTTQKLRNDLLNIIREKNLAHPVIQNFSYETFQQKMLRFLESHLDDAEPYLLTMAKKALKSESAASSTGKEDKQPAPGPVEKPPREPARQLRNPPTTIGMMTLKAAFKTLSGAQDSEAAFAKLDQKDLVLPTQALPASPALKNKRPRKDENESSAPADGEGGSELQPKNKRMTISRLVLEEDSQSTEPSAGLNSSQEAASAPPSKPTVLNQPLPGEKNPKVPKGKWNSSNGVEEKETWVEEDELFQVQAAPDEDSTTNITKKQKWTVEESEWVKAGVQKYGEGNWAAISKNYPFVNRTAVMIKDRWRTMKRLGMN
UniProt Q96AP0: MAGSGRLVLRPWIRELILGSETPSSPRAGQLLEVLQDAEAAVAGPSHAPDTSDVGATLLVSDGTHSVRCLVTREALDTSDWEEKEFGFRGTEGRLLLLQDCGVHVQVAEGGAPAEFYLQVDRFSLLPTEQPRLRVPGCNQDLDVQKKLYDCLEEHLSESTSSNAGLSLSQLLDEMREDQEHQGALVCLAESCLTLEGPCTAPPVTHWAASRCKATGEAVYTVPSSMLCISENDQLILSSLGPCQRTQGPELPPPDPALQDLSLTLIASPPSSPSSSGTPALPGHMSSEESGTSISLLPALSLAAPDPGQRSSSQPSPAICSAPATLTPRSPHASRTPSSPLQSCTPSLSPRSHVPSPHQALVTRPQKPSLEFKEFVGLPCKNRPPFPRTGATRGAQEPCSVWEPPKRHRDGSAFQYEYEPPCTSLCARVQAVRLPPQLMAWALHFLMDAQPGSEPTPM
UniProt P06733: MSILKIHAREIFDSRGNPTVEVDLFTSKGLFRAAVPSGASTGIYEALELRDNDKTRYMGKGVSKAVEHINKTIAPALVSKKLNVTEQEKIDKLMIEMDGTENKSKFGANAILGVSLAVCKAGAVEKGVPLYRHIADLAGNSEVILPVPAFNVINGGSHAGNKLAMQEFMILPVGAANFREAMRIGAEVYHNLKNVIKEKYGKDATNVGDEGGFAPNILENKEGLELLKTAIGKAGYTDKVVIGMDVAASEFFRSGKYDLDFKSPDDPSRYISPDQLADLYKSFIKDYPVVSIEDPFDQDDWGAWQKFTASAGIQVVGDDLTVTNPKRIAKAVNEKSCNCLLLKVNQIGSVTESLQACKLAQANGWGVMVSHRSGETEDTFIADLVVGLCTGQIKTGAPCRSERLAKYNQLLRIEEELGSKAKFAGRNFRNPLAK
UniProt P04406: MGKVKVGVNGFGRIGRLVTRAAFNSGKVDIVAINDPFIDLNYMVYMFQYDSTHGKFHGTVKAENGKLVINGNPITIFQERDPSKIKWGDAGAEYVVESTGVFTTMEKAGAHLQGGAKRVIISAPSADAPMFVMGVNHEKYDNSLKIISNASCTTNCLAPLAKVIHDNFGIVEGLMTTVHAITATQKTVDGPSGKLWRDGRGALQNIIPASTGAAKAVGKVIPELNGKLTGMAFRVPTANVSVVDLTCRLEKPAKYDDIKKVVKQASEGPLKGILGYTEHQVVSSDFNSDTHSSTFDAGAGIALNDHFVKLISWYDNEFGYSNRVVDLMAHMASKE
UniProt P14618: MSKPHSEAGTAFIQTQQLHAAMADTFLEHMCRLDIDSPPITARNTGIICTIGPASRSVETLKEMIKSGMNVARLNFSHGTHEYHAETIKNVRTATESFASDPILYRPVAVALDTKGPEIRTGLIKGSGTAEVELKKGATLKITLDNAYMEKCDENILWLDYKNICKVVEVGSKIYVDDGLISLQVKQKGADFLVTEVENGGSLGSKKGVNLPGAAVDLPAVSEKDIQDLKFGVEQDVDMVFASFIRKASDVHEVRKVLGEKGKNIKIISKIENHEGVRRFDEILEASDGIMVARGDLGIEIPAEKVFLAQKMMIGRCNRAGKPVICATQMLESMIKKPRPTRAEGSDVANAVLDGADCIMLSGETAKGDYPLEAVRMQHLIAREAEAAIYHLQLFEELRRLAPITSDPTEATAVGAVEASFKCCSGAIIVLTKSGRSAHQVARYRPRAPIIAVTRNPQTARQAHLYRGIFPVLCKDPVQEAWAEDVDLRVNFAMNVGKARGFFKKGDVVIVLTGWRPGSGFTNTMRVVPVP

Target: TRF2 (human (endogenous in HCT116)) (UniProt Q15554)
Assay: affinity purification with mass spectrometry; TRF2 immunoprecipitates of HCT116 cells grown 1 week in 5 mM glucose with 10 nM CRT0063465 (treated condition); LC-MS/MS of gel bands, Mascot and Scaffold

binding	Molecule
binds	TPP1 (from UniProt Q96AP0 1-458)
binds	5′-exonuclease Apollo (DCLRE1B) (protein, UniProt Q9H816 1-532) MNGVLIPHTPIAVDFWSLRRAGTARLFFLSHMHSDHTVGLSSTWARPLYCSPITAHLLHRHLQVSKQWIQALEVGESHVLPLDEIGQETMTVTLLDANHCPGSVMFLFEGYFGTILYTGDFRYTPSMLKEPALTLGKQIHTLYLDNTNCNPALVLPSRQEAAHQIVQLIRKHPQHNIKIGLYSLGKESLLEQLALEFQTWVVLSPRRLELVQLLGLADVFTVEEKAGRIHAVDHMEICHSNMLRWNQTHPTIAILPTSRKIHSSHPDIHVIPYSDHSSYSELRAFVAALKPCQVVPIVSRRPCGGFQDSLSPRISVPLIPDSVQQYMSSSSRKPSLLWLLERRLKRPRTQGVVFESPEESADQSQADRDSKKAKKEKLSPWPADLEKQPSHHPLRIKKQLFPDLYSKEWNKAVPFCESQKRVTMLTAPLGFSVHLRSTDEEFISQKTREEIGLGSPLVPMGDDDGGPEATGNQSAWMGHGSPLSHSSKGTPLLATEFRGLALKYLLTPVNFFQAGYSSRRFDQQVEKYHKPC
binds	TIN2 (protein, UniProt Q9BSI4 1-451) MATPLVAGPAALRFAAAASWQVVRGRCVEHFPRVLEFLRSLRAVAPGLVRYRHHERLCMGLKAKVVVELILQGRPWAQVLKALNHHFPESGPIVRDPKATKQDLRKILEAQETFYQQVKQLSEAPVDLASKLQELEQEYGEPFLAAMEKLLFEYLCQLEKALPTPQAQQLQDVLSWMQPGVSITSSLAWRQYGVDMGWLLPECSVTDSVNLAEPMEQNPPQQQRLALHNPLPKAKPGTHLPQGPSSRTHPEPLAGRHFNLAPLGRRRVQSQWASTRGGHKERPTVMLFPFRNLGSPTQVISKPESKEEHAIYTADLAMGTRAASTGKSKSPCQTLGGRALKENPVDLPATEQKENCLDCYMDPLRLSLLPPRARKPVCPPSLCSSVITIGDLVLDSDEEENGQGEGKESLENYQKTKFDTLIPTLCEYLPPSGHGAIPVSSCDCRDSSRPL

Target: TRF2 (human (endogenous in HCT116)) (UniProt Q15554)
Assay: affinity purification with mass spectrometry; TRF2 immunoprecipitates of HCT116 cells grown 1 week in 5 mM glucose, vehicle (untreated condition); LC-MS/MS of gel bands, Mascot and Scaffold; the glycolysis proteins were also quantified after 10 nM CRT0063465

binding	Molecule
binds	ENO1 (from UniProt P06733 1-434)
binds	GAPDH (from UniProt P04406 1-335)
no binding	PGI (from UniProt P06744 1-558)
binds	PKM (from UniProt P14618 1-531)

Molecule	binding
TPP1 (from UniProt Q96AP0 1-458)	no binding (only cells not treated with CRT0063465)

Target: TRF2 (human (endogenous in HCT116)) (UniProt Q15554)
Assay: as above
Remark: another data set of the same source

binding	Molecule
binds	ALDOA (protein, UniProt P04075 1-364) MPYQYPALTPEQKKELSDIAHRIVAPGKGILAADESTGSIAKRLQSIGTENTEENRRFYRQLLLTADDRVNPCIGGVILFHETLYQKADDGRPFPQVIKSKGGVVGIKVDKGVVPLAGTNGETTTQGLDGLSERCAQYKKDGADFAKWRCVLKIGEHTPSALAIMENANVLARYASICQQNGIVPIVEPEILPDGDHDLKRCQYVTEKVLAAVYKALSDHHIYLEGTLLKPNMVTPGHACTQKFSHEEIAMATVTALRRTVPPAVTGITFLSGGQSEEEASINLNAINKCPLLKPWALTFSYGRALQASALKAWGGKKENLKAAQEEYVKRALANSLACQGKYTPSGQAGAAASESLFVSNHAY
binds	RAP1 (protein, UniProt Q9NYB0 1-399) MAEAMDLGKDPNGPTHSSTLFVRDDGSSMSFYVRPSPAKRRLSTLILHGGGTVCRVQEPGAVLLAQPGEALAEASGDFISTQYILDCVERNERLELEAYRLGPASAADTGSEAKPGALAEGAAEPEPQRHAGRIAFTDADDVAILTYVKENARSPSSVTGNALWKAMEKSSLTQHSWQSLKDRYLKHLRGQEHKYLLGDAPVSPSSQKLKRKAEEDPEAADSGEPQNKRTPDLPEEEYVKEEIQENEEAVKKMLVEATREFEEVVVDESPPDFEIHITMCDDDPPTPEEDSETQPDEEEEEEEEKVSQPEVGAAIKIIRQLMEKFNLDLSTVTQAFLKNSGELEATSAFLASGQRADGYPIWSRQDDIDLQKDDEDTREALVKKFGAQNVARRIEFRKK
binds	POT1 (protein, UniProt Q9NUX5 1-634) MSLVPATNYIYTPLNQLKGGTIVNVYGVVKFFKPPYLSKGTDYCSVVTIVDQTNVKLTCLLFSGNYEALPIIYKNGDIVRFHRLKIQVYKKETQGITSSGFASLTFEGTLGAPIIPRTSSKYFNFTTEDHKMVEALRVWASTHMSPSWTLLKLCDVQPMQYFDLTCQLLGKAEVDGASFLLKVWDGTRTPFPSWRVLIQDLVLEGDLSHIHRLQNLTIDILVYDNHVHVARSLKVGSFLRIYSLHTKLQSMNSENQTMLSLEFHLHGGTSYGRGIRVLPESNSDVDQLKKDLESANLTANQHSDVICQSEPDDSFPSSGSVSLYEVERCQQLSATILTDHQYLERTPLCAILKQKAPQQYRIRAKLRSYKPRRLFQSVKLHCPKCHLLQEVPHEGDLDIIFQDGATKTPDVKLQNTSLYDSKIWTTKNQKGRKVAVHFVKNNGILPLSNECLLLIEGGTLSEICKLSNKFNSVIPVRSGHEDLELLDLSAPFLIQGTIHHYGCKQCSSLRSIQNLNSLVDKTSWIPSSVAEALGIVPLQYVFVMTFTLDDGTGVLEAYLMDSDKFFQIPASEVLMDDDLQKSVDMIMDMFCPPGIKIDAYPWLECFIKSYNVTNGTDNQICYQIFDTTVAEDVI

Molecule	binding
TIN2 (protein, UniProt Q9BSI4 1-451) MATPLVAGPAALRFAAAASWQVVRGRCVEHFPRVLEFLRSLRAVAPGLVRYRHHERLCMGLKAKVVVELILQGRPWAQVLKALNHHFPESGPIVRDPKATKQDLRKILEAQETFYQQVKQLSEAPVDLASKLQELEQEYGEPFLAAMEKLLFEYLCQLEKALPTPQAQQLQDVLSWMQPGVSITSSLAWRQYGVDMGWLLPECSVTDSVNLAEPMEQNPPQQQRLALHNPLPKAKPGTHLPQGPSSRTHPEPLAGRHFNLAPLGRRRVQSQWASTRGGHKERPTVMLFPFRNLGSPTQVISKPESKEEHAIYTADLAMGTRAASTGKSKSPCQTLGGRALKENPVDLPATEQKENCLDCYMDPLRLSLLPPRARKPVCPPSLCSSVITIGDLVLDSDEEENGQGEGKESLENYQKTKFDTLIPTLCEYLPPSGHGAIPVSSCDCRDSSRPL	no binding (only cells not treated with CRT0063465)
